Results on three substances are retold here after paper PMC10011478.

Sequences of proteins named here, by UniProt entry; tags and fusion partners are left off.
UniProt P63026: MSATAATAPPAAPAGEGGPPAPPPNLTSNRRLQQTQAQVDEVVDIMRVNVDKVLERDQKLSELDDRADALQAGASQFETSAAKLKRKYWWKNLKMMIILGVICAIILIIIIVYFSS
UniProt P60881: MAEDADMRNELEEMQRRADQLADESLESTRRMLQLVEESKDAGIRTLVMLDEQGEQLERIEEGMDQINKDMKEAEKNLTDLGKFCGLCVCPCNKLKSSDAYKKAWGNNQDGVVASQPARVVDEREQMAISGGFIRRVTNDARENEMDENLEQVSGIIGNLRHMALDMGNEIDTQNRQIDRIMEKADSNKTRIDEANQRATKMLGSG

Experiment [1] deals with T1, MBP-CeCav (C. elegans) (UniProt Q94051).
T1 sequence: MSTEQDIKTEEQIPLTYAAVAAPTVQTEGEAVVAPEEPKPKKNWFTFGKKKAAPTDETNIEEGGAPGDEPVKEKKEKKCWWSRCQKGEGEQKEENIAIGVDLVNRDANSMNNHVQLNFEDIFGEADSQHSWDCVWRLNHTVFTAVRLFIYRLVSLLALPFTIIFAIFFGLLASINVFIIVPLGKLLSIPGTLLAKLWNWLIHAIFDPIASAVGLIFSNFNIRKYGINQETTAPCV

Experiment [2] addresses StrepTag-VAMP-2 (Bos taurus) (UniProt P63026).
The target of experiment [3] is T1, MBP-CeCav (C. elegans). This is another data set of the same source.

Like-named read-outs stand apart in the source and are kept apart here. These are yes or no findings as the source states them, for the method shown. In cells and extracts the contact can be indirect. Some results given as binding are weak or reduced against the parent protein; the word gives no strength. For some of these results: Sequences can lack the tags named with a protein.

For the substance CBP-SNAP-25 (from UniProt P60881 1-206), the binding result (with MBP-CeCav (C. elegans) [1]; in experiment [2]) was “binds” throughout.

As to “Munc-18a-FLAG (from UniProt P61765 1-594)”, the binding entry in the experiment with MBP-CeCav (C. elegans) [3] is “no binding”.

In the case of “StrepTag-VAMP-2 (from UniProt P63026 1-116)”, the binding entry in the experiment with MBP-CeCav (C. elegans) [1] is given as “no binding”.
